According to PMC11623927, “Synthesis and biological assessment of chalcone and pyrazoline derivatives as novel inhibitor for ELF3-MED23 interaction” (eLife, 2024):
No constants are given. Whether binding was seen depends on the method and setting. For part of these data: In cells and extracts the contact can be indirect. Some entries that bind do so weakly or less than the wild type. For part of these data: Tags and fused reporters may be left off the sequences shown. Values belong to the binder of their own block, whether it stands above or below them.

Legend:
[1] = biological target: T1, fluorescein isothiocyanate (FITC)-labeled ELF3_(129-145) peptide (UniProt P78545); assay: fluorescence polarisation; cell-free displacement; varying concentrations of unlabeled ELF3(137-144) peptide added to 80 nM (His)6-MED23(391-582) and 10 nM FITC-ELF3(129-145); Ki from IC50 by the Cheng-Prusoff equation; n=3; both purified
T1 sequence (peptide, fluorescein isothiocyanate (FITC) label, position not stated): TSSSSDELSWIIELLEK

[2] = biological target: T2, mediator of RNA polymerase II transcription subunit 23 (MED23), endogenous (human (endogenous in NCI-N87)) (UniProt Q9ULK4); assay: co-IP; endogenous proteins in NCI-N87 lysate (400 μg); MED23 antibody or rabbit IgG, protein-A/G PLUS-agarose, 4 °C; blot for ELF3; cells treated with 10 μM of compounds 3, 10 or 25 for 16 hr
T2 sequence: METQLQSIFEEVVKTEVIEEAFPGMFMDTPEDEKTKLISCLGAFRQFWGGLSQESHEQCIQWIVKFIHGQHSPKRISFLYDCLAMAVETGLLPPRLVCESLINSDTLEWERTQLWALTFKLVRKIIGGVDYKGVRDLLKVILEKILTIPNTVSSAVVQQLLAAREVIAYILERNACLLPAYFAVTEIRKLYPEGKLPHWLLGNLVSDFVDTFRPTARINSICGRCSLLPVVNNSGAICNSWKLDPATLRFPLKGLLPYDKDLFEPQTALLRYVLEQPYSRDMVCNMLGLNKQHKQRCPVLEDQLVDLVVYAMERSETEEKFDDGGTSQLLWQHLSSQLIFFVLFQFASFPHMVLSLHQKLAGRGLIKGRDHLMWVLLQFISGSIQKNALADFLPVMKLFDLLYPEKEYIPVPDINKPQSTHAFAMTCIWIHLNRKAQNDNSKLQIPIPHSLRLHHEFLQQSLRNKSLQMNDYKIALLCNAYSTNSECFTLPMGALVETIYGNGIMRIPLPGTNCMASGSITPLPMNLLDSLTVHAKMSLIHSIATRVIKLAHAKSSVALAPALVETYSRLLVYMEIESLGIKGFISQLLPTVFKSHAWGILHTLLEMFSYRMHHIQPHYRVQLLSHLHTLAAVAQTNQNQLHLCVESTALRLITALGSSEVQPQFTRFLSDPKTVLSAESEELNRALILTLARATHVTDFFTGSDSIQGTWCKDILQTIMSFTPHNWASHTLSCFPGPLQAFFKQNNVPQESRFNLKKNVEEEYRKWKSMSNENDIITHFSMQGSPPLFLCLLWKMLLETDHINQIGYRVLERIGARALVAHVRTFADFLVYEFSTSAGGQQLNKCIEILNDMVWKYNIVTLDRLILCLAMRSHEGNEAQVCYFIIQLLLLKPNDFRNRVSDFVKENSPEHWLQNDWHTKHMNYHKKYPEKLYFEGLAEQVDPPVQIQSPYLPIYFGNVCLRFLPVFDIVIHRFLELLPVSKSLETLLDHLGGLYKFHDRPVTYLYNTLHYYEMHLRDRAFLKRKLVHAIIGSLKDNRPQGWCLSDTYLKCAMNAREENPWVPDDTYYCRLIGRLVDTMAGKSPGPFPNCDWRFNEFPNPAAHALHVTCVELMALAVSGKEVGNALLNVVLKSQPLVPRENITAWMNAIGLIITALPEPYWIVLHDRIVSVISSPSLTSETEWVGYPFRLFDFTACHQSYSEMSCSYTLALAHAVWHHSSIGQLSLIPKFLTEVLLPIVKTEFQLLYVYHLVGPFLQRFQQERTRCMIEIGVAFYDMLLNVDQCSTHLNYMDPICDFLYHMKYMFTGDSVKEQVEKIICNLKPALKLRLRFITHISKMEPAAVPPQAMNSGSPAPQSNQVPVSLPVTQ

GST-ELF3WT = biological target: T3, GST-ELF3WT (UniProt P78545); assay: pull-down; GST-ELF3WT and 3xFLAG-MED23 expressed in HEK293; 1000 μg lysate on Glutathione Sepharose beads overnight at 4 °C, washed with PBS, eluted with glutathione; western blot; with or without 5 μM compound 10
T3 sequence: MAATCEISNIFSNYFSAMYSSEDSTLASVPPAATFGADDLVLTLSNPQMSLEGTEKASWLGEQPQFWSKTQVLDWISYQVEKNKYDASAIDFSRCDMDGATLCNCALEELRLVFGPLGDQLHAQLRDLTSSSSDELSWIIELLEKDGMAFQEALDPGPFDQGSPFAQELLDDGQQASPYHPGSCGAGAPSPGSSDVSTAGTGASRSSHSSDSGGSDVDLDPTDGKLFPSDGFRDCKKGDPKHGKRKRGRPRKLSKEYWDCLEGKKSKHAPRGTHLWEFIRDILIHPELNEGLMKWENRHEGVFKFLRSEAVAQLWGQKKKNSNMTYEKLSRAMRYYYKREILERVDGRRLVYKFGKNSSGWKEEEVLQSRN

- binding [1]: binds
B1: (His)6-MED23_(391-582) protein (domain or fragment, UniProt Q9ULK4 391-582)
chain: DFLPVMKLFDLLYPEKEYIPVPDINKPQSTHAFAMTCIWIHLNRKAQNDNSKLQIPIPHSLRLHHEFLQQSLRNKSLQMNDYKIALLCNAYSTNSECFTLPMGALVETIYGNGIMRIPLPGTNCMASGSITPLPMNLLDSLTVHAKMSLIHSIATRVIKLAHAKSSVALAPALVETYSRLLVYMEIESLGIK

- binding [2]: binds
B2: Nluc-ELF3WT (natural protein, UniProt P78545 1-371, looked up)
chain: MAATCEISNIFSNYFSAMYSSEDSTLASVPPAATFGADDLVLTLSNPQMSLEGTEKASWLGEQPQFWSKTQVLDWISYQVEKNKYDASAIDFSRCDMDGATLCNCALEELRLVFGPLGDQLHAQLRDLTSSSSDELSWIIELLEKDGMAFQEALDPGPFDQGSPFAQELLDDGQQASPYHPGSCGAGAPSPGSSDVSTAGTGASRSSHSSDSGGSDVDLDPTDGKLFPSDGFRDCKKGDPKHGKRKRGRPRKLSKEYWDCLEGKKSKHAPRGTHLWEFIRDILIHPELNEGLMKWENRHEGVFKFLRSEAVAQLWGQKKKNSNMTYEKLSRAMRYYYKREILERVDGRRLVYKFGKNSSGWKEEEVLQSRN
notes: ELF3, full-length cDNA, wild type; source: HEK293, transfected, in cells

- binding (GST-ELF3WT): binds
B3: 3xFLAG-MED23 (protein, UniProt Q9ULK4 1-1368)
chain: METQLQSIFEEVVKTEVIEEAFPGMFMDTPEDEKTKLISCLGAFRQFWGGLSQESHEQCIQWIVKFIHGQHSPKRISFLYDCLAMAVETGLLPPRLVCESLINSDTLEWERTQLWALTFKLVRKIIGGVDYKGVRDLLKVILEKILTIPNTVSSAVVQQLLAAREVIAYILERNACLLPAYFAVTEIRKLYPEGKLPHWLLGNLVSDFVDTFRPTARINSICGRCSLLPVVNNSGAICNSWKLDPATLRFPLKGLLPYDKDLFEPQTALLRYVLEQPYSRDMVCNMLGLNKQHKQRCPVLEDQLVDLVVYAMERSETEEKFDDGGTSQLLWQHLSSQLIFFVLFQFASFPHMVLSLHQKLAGRGLIKGRDHLMWVLLQFISGSIQKNALADFLPVMKLFDLLYPEKEYIPVPDINKPQSTHAFAMTCIWIHLNRKAQNDNSKLQIPIPHSLRLHHEFLQQSLRNKSLQMNDYKIALLCNAYSTNSECFTLPMGALVETIYGNGIMRIPLPGTNCMASGSITPLPMNLLDSLTVHAKMSLIHSIATRVIKLAHAKSSVALAPALVETYSRLLVYMEIESLGIKGFISQLLPTVFKSHAWGILHTLLEMFSYRMHHIQPHYRVQLLSHLHTLAAVAQTNQNQLHLCVESTALRLITALGSSEVQPQFTRFLSDPKTVLSAESEELNRALILTLARATHVTDFFTGSDSIQGTWCKDILQTIMSFTPHNWASHTLSCFPGPLQAFFKQNNVPQESRFNLKKNVEEEYRKWKSMSNENDIITHFSMQGSPPLFLCLLWKMLLETDHINQIGYRVLERIGARALVAHVRTFADFLVYEFSTSAGGQQLNKCIEILNDMVWKYNIVTLDRLILCLAMRSHEGNEAQVCYFIIQLLLLKPNDFRNRVSDFVKENSPEHWLQNDWHTKHMNYHKKYPEKLYFEGLAEQVDPPVQIQSPYLPIYFGNVCLRFLPVFDIVIHRFLELLPVSKSLETLLDHLGGLYKFHDRPVTYLYNTLHYYEMHLRDRAFLKRKLVHAIIGSLKDNRPQGWCLSDTYLKCAMNAREENPWVPDDTYYCRLIGRLVDTMAGKSPGPFPNCDWRFNEFPNPAAHALHVTCVELMALAVSGKEVGNALLNVVLKSQPLVPRENITAWMNAIGLIITALPEPYWIVLHDRIVSVISSPSLTSETEWVGYPFRLFDFTACHQSYSEMSCSYTLALAHAVWHHSSIGQLSLIPKFLTEVLLPIVKTEFQLLYVYHLVGPFLQRFQQERTRCMIEIGVAFYDMLLNVDQCSTHLNYMDPICDFLYHMKYMFTGDSVKEQVEKIICNLKPALKLRLRFITHISKMEPAAVPPQAMNSGSPAPQSNQVPVSLPVTQ
